Test results from US11726081B2, “Methods to identify modulators of tau protein structure” (REGENTS OF THE UNIVERSITY OF MINNESOTA, priority 2019, dated 2023).
Some results were stated once for a whole list of compounds, not compound by compound.

Target: WT tau FRET biosensor (tau-GFP/RFP) (Homo sapiens, UniProt P10636)
Experiment: Pilot HTS of NCC library with tau FRET biosensor (fluorescence lifetime)
Details: 10 μM, 2 hours

Oc1cc(Cl)ccc1Oc1ccc(Cl)cc1Cl [Triclosan]
decrease in FRET efficiency below the mean of all wells: > 5 SD
